Assay results: the supplement of paper PMC10849652
The list shows a part of the results.

Sequences of proteins named here, by UniProt entry; tags and fusion partners are left off. A change or cut given only in a name is not applied to a line headed by its entry.
UniProt P53778: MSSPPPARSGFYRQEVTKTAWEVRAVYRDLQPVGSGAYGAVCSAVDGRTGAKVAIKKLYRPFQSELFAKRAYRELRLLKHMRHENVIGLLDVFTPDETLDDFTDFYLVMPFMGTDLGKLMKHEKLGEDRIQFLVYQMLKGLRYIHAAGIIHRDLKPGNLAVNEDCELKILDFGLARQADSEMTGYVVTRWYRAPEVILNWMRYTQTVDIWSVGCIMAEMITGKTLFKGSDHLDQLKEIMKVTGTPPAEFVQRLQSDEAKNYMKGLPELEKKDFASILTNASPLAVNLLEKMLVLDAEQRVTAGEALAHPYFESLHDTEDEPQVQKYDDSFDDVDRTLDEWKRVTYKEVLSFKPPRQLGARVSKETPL
UniProt Q9Y4F3: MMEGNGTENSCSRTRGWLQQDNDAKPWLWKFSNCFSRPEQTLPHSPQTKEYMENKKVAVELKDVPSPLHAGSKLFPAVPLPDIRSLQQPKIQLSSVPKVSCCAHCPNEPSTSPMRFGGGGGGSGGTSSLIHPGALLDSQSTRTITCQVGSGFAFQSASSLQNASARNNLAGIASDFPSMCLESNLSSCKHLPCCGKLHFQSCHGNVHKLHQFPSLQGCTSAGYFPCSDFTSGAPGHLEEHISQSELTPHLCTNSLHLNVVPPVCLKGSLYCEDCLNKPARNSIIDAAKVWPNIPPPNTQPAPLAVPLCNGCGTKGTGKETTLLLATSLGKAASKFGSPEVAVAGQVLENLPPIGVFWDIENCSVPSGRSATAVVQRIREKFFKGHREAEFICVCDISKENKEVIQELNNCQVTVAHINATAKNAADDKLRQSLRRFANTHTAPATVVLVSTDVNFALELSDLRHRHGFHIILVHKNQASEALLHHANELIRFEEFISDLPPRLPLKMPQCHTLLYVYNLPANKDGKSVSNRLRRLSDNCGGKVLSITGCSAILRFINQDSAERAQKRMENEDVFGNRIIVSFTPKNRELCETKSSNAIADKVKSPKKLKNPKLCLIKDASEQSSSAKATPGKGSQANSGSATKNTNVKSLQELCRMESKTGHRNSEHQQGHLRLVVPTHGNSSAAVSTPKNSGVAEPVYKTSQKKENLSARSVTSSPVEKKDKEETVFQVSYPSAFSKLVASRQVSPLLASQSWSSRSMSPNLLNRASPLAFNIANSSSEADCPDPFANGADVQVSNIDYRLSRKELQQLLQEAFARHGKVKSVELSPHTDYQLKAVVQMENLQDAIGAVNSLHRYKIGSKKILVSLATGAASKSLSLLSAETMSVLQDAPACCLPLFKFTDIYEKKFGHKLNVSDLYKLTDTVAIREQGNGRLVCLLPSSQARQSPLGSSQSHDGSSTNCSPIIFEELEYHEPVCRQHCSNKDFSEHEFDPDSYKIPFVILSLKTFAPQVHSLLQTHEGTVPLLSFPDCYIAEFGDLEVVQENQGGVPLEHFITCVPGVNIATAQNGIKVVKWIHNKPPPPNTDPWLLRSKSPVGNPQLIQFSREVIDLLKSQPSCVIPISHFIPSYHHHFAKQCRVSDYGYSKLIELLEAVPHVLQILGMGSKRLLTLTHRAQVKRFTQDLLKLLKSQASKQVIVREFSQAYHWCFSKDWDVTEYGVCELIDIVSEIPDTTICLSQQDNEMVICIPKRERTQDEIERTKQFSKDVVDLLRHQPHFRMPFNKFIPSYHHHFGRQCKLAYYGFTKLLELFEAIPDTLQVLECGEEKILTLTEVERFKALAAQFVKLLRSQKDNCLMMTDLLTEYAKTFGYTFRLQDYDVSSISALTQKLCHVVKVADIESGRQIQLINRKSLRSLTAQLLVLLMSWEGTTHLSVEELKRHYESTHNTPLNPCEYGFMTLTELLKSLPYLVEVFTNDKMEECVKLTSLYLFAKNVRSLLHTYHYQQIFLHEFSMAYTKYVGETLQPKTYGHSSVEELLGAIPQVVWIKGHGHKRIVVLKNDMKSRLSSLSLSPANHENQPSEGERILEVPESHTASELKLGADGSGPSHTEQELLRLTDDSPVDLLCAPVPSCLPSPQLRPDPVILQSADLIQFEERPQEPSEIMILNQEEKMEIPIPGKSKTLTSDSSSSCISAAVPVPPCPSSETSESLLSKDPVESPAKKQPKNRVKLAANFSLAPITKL
UniProt Q92585: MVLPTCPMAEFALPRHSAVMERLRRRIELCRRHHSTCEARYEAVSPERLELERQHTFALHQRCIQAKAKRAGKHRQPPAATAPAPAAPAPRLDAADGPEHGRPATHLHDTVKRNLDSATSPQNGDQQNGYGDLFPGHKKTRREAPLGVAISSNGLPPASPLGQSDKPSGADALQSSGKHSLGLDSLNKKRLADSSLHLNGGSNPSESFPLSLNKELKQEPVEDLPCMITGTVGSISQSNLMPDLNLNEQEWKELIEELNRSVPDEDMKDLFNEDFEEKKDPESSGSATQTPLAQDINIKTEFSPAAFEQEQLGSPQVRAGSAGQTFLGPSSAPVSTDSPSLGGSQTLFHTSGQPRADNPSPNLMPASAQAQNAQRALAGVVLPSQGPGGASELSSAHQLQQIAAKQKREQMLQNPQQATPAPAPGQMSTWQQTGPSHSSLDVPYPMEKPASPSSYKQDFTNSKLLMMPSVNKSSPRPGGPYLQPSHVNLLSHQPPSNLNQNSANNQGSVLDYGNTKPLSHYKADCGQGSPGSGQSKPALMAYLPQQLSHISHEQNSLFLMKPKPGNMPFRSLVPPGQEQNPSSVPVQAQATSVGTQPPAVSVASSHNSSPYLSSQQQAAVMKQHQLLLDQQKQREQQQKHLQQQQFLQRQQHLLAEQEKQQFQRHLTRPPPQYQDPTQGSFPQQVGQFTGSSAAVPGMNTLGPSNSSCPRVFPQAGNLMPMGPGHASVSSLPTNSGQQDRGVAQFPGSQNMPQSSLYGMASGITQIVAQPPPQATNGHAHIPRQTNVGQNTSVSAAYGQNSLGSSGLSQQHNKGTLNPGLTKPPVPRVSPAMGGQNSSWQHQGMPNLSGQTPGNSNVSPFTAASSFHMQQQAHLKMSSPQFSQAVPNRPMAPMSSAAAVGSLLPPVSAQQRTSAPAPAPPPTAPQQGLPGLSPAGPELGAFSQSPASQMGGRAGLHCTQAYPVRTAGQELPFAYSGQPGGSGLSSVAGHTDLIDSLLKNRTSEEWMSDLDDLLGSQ
UniProt Q9BSK0: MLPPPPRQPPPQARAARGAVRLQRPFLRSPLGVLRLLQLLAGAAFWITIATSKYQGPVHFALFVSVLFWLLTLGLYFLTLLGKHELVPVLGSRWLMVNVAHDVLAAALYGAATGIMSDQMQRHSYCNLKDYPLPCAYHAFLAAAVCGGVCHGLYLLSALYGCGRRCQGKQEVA
UniProt P41279, whole entry, looked up: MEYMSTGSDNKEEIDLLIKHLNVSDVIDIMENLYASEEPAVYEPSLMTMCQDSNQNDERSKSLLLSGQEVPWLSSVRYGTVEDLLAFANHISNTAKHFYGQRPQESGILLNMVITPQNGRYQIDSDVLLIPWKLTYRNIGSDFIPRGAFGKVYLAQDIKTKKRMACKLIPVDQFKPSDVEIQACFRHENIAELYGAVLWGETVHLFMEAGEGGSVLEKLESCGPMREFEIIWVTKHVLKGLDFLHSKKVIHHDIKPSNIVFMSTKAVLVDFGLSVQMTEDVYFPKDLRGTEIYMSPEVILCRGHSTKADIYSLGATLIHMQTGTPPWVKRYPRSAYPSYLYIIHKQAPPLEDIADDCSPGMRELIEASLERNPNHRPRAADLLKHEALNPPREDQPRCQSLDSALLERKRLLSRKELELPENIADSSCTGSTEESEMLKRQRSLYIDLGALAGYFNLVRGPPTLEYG
UniProt Q14766: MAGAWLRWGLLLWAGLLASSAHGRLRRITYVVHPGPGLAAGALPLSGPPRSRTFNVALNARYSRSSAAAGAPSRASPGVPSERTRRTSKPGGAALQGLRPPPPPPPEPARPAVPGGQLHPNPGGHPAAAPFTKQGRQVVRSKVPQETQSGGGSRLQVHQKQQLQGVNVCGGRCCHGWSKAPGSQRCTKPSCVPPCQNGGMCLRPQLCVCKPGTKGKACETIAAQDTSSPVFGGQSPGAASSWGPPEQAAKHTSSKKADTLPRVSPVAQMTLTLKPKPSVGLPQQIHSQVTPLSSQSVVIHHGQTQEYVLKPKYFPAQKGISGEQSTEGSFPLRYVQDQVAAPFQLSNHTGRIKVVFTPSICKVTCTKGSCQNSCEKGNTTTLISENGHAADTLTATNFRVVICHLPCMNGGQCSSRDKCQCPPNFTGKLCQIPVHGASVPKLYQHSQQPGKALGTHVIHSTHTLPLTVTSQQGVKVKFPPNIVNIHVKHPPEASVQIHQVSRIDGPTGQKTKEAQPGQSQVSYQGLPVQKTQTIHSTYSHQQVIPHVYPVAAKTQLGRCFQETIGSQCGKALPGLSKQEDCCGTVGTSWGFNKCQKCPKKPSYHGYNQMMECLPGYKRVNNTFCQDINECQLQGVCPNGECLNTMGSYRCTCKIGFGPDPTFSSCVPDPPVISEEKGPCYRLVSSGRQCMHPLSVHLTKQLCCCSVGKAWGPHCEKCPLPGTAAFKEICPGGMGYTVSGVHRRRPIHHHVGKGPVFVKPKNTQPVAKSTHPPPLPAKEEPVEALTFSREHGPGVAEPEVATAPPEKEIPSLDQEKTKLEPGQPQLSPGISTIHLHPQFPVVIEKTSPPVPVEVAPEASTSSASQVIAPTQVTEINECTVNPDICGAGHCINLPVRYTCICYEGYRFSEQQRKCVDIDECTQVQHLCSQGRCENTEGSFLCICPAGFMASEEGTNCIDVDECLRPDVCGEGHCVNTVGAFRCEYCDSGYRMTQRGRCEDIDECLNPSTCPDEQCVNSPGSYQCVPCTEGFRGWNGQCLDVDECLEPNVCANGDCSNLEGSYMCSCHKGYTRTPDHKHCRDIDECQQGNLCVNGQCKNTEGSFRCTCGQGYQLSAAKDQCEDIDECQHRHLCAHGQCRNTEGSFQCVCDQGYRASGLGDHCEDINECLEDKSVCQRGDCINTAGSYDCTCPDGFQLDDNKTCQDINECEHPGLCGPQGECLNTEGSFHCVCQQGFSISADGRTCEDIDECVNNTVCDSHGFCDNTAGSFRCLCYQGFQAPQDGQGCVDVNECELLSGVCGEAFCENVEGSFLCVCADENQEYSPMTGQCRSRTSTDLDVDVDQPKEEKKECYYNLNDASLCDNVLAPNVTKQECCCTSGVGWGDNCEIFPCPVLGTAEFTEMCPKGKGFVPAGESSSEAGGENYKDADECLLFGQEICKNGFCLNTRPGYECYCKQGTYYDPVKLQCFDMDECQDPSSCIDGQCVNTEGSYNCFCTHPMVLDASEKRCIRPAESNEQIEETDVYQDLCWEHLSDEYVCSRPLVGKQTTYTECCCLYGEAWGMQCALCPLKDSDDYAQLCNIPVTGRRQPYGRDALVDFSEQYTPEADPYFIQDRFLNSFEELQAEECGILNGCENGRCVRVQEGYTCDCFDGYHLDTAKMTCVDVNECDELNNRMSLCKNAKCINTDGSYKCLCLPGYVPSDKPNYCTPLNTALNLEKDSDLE
UniProt Q8WV07: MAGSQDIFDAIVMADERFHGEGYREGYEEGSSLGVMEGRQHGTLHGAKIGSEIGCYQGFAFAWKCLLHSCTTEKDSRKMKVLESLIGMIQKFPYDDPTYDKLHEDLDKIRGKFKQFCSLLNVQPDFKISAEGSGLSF
UniProt Q86UD3: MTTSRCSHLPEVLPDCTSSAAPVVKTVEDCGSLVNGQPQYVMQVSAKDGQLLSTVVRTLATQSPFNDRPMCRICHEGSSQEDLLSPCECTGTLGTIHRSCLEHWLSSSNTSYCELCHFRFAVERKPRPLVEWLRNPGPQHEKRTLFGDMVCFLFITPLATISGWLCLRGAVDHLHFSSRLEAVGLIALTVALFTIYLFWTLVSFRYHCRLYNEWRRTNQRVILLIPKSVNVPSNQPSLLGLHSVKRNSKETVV
UniProt Q9BPZ7, whole entry, looked up: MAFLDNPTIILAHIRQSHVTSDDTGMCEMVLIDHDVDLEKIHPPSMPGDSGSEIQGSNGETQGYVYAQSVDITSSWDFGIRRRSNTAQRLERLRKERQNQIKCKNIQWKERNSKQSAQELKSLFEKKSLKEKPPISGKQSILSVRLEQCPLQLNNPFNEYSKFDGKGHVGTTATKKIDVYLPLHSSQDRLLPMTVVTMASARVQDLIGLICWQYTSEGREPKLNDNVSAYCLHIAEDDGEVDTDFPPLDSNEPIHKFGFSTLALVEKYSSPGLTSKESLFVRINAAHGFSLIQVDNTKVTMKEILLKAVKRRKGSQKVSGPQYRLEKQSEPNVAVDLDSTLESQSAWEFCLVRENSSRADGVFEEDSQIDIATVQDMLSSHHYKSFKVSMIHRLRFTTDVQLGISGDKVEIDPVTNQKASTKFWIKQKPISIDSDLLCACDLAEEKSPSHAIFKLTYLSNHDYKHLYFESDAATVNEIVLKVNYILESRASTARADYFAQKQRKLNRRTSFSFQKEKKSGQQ
UniProt Q14210: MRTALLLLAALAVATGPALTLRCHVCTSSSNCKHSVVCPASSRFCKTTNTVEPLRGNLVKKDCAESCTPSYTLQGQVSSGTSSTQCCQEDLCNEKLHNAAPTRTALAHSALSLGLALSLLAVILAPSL

compound: Cc1ccc(NC(=O)c2ccc(CN3CC[C@H](N(C)C)C3)c(C(F)(F)F)c2)cc1Nc1nccc(-c2cncnc2)n1 [bafetinib]; assay: log2 fold change, soluble protein after heating vs DMSO (PISA); higher = thermal stabilisation; K562 lysate, 10 uM; active = over 0.2 and 3.5 SD of the protein, either way, in both replicates (recomputed)
Outline: (§1)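 K562 pellets were dounce-homogenised in PBS pH 7.4 with 1 mM MgCl2, and the crude extract at 1 mg/mL protein was treated with 10 μM compound for 30 min. Aliquots were heated for 3 min across 48°C-58°C, pooled, and brought to 0.5% NP-40 at 4°C; soluble protein was the supernatant after 21,000xg for 90 min. Soluble protein was quantified by TMTpro 16plex LC-MS/MS with channel sums equalised, and reported as log2 fold change in thermal stability against DMSO controls, with values from duplicates.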

log2 fold change, inactive:
MAPK12 (UniProt P53778) 0
MARF1 (UniProt Q9Y4F3) -0.012
MAML1 (UniProt Q92585) -0.05
MACF1, A0A0A6YYJ5 -0.051
MARVELD1 (UniProt Q9BSK0) -0.138
LYL1 (UniProt P12980) -0.123
MAP3K2 (UniProt Q9Y2U5) -0.13
MAP3K8 (UniProt P41279) -0.115
MAP4K3 (UniProt Q8IVH8) -0.028
LTBP1 isoform 4 (UniProt Q14766) 0.02
LTO1 (UniProt Q8WV07) -0.031

compound: Cc1cccc(CC(=O)N2CCc3c2ccc(-c2cn(C)c4ncnc(N)c24)c3F)n1; assay: as above
Outline: as §1

log2 fold change, inactive:
MAPK12 (UniProt P53778) -0.163
MARCHF3 (UniProt Q86UD3) 0.041
MARF1 (UniProt Q9Y4F3) 0.095
MAML1 (UniProt Q92585) 0.023
MACF1, A0A0A6YYJ5 0.068
LYN isoform 2 (UniProt P07948) -0.006
LYRM1 (UniProt O43325) -0.261
MAP3K1 (UniProt Q13233) -0.086
MARVELD1 (UniProt Q9BSK0) 0.231
LYL1 (UniProt P12980) 0.129
MAP3K2 (UniProt Q9Y2U5) 0.214
MACF1, A0A5F9ZGX0 0.063
MAGED4 isoform 4 (UniProt Q96JG8) 0.376
MAP3K8 (UniProt P41279) -0.025
LTBP1 isoform 4 (UniProt Q14766) 0.206
MAGEA12 (UniProt P43365) 0.048
LTO1 (UniProt Q8WV07) -0.021
MAGEB10 (UniProt Q96LZ2) 0.093

compound: Cc1cn(-c2cc(NC(=O)c3ccc(C)c(Nc4nccc(-c5cccnc5)n4)c3)cc(C(F)(F)F)c2)cn1 [nilotinib]; assay: as above
Outline: as §1

log2 fold change, inactive:
MAPK12 (UniProt P53778) 0.082
MAP3K3 isoform 2 (UniProt Q99759) -0.122
MAPK3 (UniProt H0YEX6) -0.522
MARF1 (UniProt Q9Y4F3) -0.064
MAML1 (UniProt Q92585) -0.094
MACF1, A0A0A6YYJ5 -0.005
MAP3K6 (UniProt O95382) 0.122
LYN isoform 2 (UniProt P07948) 0.125
MAP3K1 (UniProt Q13233) -0.042
MAPK15 (UniProt Q8TD08) -0.138
MAPKAP1 (UniProt Q9BPZ7) 0.105
LTBP1 isoform 4 (UniProt Q14766) 0.144
LTO1 (UniProt Q8WV07) 0.038

compound: Cc1nc(Nc2n[nH]c3c2CN(C(=O)N[C@H](CN(C)C)c2ccccc2)C3(C)C)c2sccc2n1; assay: as above
Outline: as §1

log2 fold change, inactive:
MAPK12 (UniProt P53778) 0.048
MAP3K3 isoform 2 (UniProt Q99759) -0.002
MAPK3 (UniProt H0YEX6) 0.646
MARF1 (UniProt Q9Y4F3) 0.024
MAML1 (UniProt Q92585) 0.015
MACF1, A0A0A6YYJ5 -0.065
MAP3K6 (UniProt O95382) -0.023
LYN isoform 2 (UniProt P07948) 0.143
MAP3K1 (UniProt Q13233) 0.107
MAPK15 (UniProt Q8TD08) 0.166
MAPKAP1 (UniProt Q9BPZ7) -0.118
LTBP1 isoform 4 (UniProt Q14766) -0.134
LTO1 (UniProt Q8WV07) -0.099

compound: Cc1nc(Nc2ncc(C(=O)Nc3c(C)cccc3Cl)s2)cc(N2CCN(CCO)CC2)n1 [dasatinib]; assay: as above
Outline: as §1

log2 fold change, inactive:
LY6D (UniProt Q14210) 0.482
MAGEF1 (UniProt Q9HAY2) 0.11
MAPK12 (UniProt P53778) -0.057
MAP3K3 isoform 2 (UniProt Q99759) 0.189
MARF1 (UniProt Q9Y4F3) -0.031
MAML1 (UniProt Q92585) 0.046
MARCHF7 (UniProt Q9H992) -0.068
MACF1, A0A0A6YYJ5 0.018
LYN isoform 2 (UniProt P07948) 0.438
LYRM1 (UniProt O43325) -0.039
MARVELD1 (UniProt Q9BSK0) 0.165
MAGI1 (UniProt H7C4S7) -0.182
MAOA (UniProt P21397) -1.15
MAP3K2 (UniProt Q9Y2U5) 0.218
MAPK15 (UniProt Q8TD08) -0.07
MAP3K8 (UniProt P41279) -0.156
MAPKAP1 (UniProt Q9BPZ7) -0.085
MAP4K3 (UniProt Q8IVH8) 0.401
LTBP1 isoform 4 (UniProt Q14766) -0.089
LTO1 (UniProt Q8WV07) 0.037
MAGEA2 (UniProt P43356) 0.056
